Source: the supplement of paper PMC10727501
The other results are listed elsewhere or left out. Single values are uncertain here, since repeats match poorly.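 Free-swimming zebrafish larvae were assessed for O-bend response probability to dark flashes (naive: first five; training: remaining flashes across four 60-flash blocks; test: later 60-flash block) and for OMR turning toward alternating leftward/rightward LED motion. Six treated larvae were compared against sixty 0.1% DMSO controls; hits required |SSMD|≥2.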

How the values were obtained:
Conditions in all cases: 10 µM; pre-incubation: 30-90 min
[1] = tested on: Danio rerio larvae (5 dpf, TLF); assay: OMR-Perf (SSMD vs DMSO vehicle); higher = higher than vehicle (e.g. higher dark-flash O-bend response probability, or better optomotor performance)
[2] = tested on: Danio rerio larvae (5 dpf, TLF); assay: Prob-Test (SSMD vs DMSO vehicle); higher = higher than vehicle (e.g. higher dark-flash O-bend response probability, or better optomotor performance)
[3] = tested on: Danio rerio larvae (5 dpf, TLF); assay: Prob-Naive (SSMD vs DMSO vehicle); higher = higher than vehicle (e.g. higher dark-flash O-bend response probability, or better optomotor performance)
[4] = tested on: Danio rerio larvae (5 dpf, TLF); assay: Prob-Train (SSMD vs DMSO vehicle); higher = higher than vehicle (e.g. higher dark-flash O-bend response probability, or better optomotor performance)

Structure (SMILES)	OMR-Perf [1]	Prob-Test [2]	Prob-Naive [3]	Prob-Train [4]
CCCCCCNC(=O)n1cc(F)c(=O)[nH]c1=O [Carmofur]	-0.77	-0.8	-0.702	-1.22
C[C@]1(C(=O)Nc2ccc(F)nc2)CCCN1c1nc(Nc2cc(C3CC3)[nH]n2)c2cccn2n1	0.137	-0.403	-0.455	-0.469
Nc1cc(C(F)(F)F)c(-c2cc(N3CCOCC3)nc(N3CCOCC3)n2)cn1 [BKM120 (NVP-BKM120, Buparlisib)]	-0.75	-1.03	0.0122	-0.243
CCCCNc1ncc(-c2ccc(CN3CCOCC3)cn2)c(N[C@H]2CC[C@H](O)CC2)n1	-0.769	-0.208	0.227	-0.577
O=C(c1ccc(F)cc1)N1CCC[C@H](c2nc(-c3ccc(F)cc3)no2)C1	-2.42	-1.04	-2.7	-1.98
CN1CC(=O)N2[C@H](c3ccc4c(c3)OCO4)c3[nH]c4ccccc4c3C[C@@H]2C1=O [Tadalafil]	0.124	0.122	-0.293	0.54
COc1cc2nccc(Oc3ccc(NC(=O)Nc4ccc(F)cc4F)c(F)c3)c2cc1OC	-0.697	0.0289	0.313	-0.0659
COc1c(O)cc2c(c1O)[C@@H]1O[C@H](CO)[C@@H](O)[C@H](O)[C@H]1OC2=O [Bergenin]	0.0721	0.0676	0.0956	-0.0105
COc1cc(O)cc([C@@H]2CC(=O)c3c(O)cc(O[C@@H]4O[C@H](CO)[C@@H](O)[C@H](O)[C@@H]4O[C@@H]4O[C@@H](C)[C@H](O)[C@@H](O)[C@@H]4O)cc3O2)c1 [Neohesperidin]	-1.33	0.204	-0.0234	-0.291
CC(=O)Nc1cccc2c1c(Sc1ccc(Cl)cc1)c(C)n2CC(=O)O	-0.111	-0.209	0.105	-0.148
C[C@@H]1O[C@@H]1P(=O)(O)O [Fosfomycin Tromethamine]	-0.276	-0.325	0.298	-0.616
CCNC(=O)C1=C(c2ccc(OC)cc2)C(=C2C=C(Cl)C(O)=CC2=O)NN1	-0.294	-0.00285	0.489	0.198
O=C(O)[C@]1(Cc2cccc(Nc3nccs3)n2)CC[C@@H](Oc2cccc(Cl)c2F)CC1	-0.248	-0.463	-0.137	0.278
CCC(=O)O[C@@H](OP(=O)(CCCCc1ccccc1)CC(=O)N1C[C@H](C2CCCCC2)C[C@H]1C(=O)[O-])C(C)C.[Na+] (some centres undefined) [Fosinopril sodium (Monopril)]	-0.283	0.32	-0.142	0.2
Cc1ccc(-c2nn(C(C)(C)C)c3ncnc(N)c23)cc1	-0.237	-1.57	-2.46	-2.35
CCOc1cc([C@@H](CS(C)(=O)=O)N2C(=O)c3cccc(NC(C)=O)c3C2=O)ccc1OC	0.302	0.634	-0.577	-0.0143
Cc1ccc(C(=O)NCCCCCC(=O)Nc2ccccc2N)cc1	-0.3	-0.148	0.146	0.0911
Cc1ccc(C(=O)N(CCCN)[C@@H](c2oc3cc(Cl)ccc3c(=O)c2Cc2ccccc2)C(C)C)cc1.Cl	-0.0875	0.376	0.459	-0.188
CN1CCCCC1CCN1c2ccccc2Sc2ccc(S(C)=O)cc21.O=S(=O)(O)c1ccccc1 (centres undefined) [Mesoridazine Besylate]	-0.587	-0.426	0.153	-0.517
Nc1ccc(S(=O)(=O)Nc2ncccn2)cc1 [Sulfadiazine]	0.3	0.0908	0.549	0.821
COc1ccccc1OCC(O)CO (centres undefined) [Guaifenesin]	0.338	-0.456	-0.411	-0.313
Cl.Clc1ccccc1CN1CCc2sccc2C1 [Ticlopidine HCl]	-0.554	-0.933	-0.578	-0.26
CC(=O)O[C@]1(C(C)=O)CC[C@H]2[C@@H]3C[C@H](C)C4=CC(=O)C=C[C@]4(C)[C@@]3(F)[C@@H](O)C[C@@]21C [Fluorometholone Acetate]	1.01	-0.359	0.312	0.0348
CC(CNC(=O)c1cccnc1)NC(=O)c1cccnc1 (centres undefined) [Nicaraven]	-0.304	0.0398	-0.0588	-0.423
Cc1ccc(S(=O)(=O)Cc2nc(-c3ccc(C(=O)NCc4cccnc4)cc3)oc2C)cc1	0.22	-0.712	-0.252	-1.06
O=C(NCCN1CCOCC1)c1ccc(Cl)cc1	0.169	0.0214	-0.422	-0.327
